From the supplement of paper PMC12067093, “Discovery and optimisation of a covalent ligand for TRIM25 and its application to targeted protein ubiquitination” (Chemical Science, 2025)
The list shows a part of the results.

By UniProt entry, the sequences of proteins in these tests, tags left out. Where a name states a change or a piece, a line headed by the entry shows the natural chain unless it says otherwise.
UniProt Q12788: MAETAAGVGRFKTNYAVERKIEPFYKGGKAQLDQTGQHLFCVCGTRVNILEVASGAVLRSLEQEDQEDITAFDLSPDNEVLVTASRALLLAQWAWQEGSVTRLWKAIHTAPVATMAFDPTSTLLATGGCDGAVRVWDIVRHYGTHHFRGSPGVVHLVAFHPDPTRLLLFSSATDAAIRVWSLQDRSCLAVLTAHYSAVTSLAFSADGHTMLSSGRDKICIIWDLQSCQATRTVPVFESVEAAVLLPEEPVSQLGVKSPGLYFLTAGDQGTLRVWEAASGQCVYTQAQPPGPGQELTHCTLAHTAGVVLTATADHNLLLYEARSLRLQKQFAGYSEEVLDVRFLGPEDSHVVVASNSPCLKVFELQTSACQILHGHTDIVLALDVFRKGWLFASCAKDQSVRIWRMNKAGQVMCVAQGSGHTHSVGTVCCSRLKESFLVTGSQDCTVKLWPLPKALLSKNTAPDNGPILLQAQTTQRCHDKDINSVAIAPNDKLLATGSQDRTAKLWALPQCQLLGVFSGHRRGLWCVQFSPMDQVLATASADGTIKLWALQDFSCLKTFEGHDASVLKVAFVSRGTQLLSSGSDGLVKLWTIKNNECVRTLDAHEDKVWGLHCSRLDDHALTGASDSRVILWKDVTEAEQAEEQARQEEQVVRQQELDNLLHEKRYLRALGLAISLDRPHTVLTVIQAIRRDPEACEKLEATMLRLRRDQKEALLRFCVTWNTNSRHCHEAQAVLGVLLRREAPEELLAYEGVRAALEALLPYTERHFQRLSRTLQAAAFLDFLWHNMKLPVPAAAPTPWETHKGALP
UniProt Q8TEA7: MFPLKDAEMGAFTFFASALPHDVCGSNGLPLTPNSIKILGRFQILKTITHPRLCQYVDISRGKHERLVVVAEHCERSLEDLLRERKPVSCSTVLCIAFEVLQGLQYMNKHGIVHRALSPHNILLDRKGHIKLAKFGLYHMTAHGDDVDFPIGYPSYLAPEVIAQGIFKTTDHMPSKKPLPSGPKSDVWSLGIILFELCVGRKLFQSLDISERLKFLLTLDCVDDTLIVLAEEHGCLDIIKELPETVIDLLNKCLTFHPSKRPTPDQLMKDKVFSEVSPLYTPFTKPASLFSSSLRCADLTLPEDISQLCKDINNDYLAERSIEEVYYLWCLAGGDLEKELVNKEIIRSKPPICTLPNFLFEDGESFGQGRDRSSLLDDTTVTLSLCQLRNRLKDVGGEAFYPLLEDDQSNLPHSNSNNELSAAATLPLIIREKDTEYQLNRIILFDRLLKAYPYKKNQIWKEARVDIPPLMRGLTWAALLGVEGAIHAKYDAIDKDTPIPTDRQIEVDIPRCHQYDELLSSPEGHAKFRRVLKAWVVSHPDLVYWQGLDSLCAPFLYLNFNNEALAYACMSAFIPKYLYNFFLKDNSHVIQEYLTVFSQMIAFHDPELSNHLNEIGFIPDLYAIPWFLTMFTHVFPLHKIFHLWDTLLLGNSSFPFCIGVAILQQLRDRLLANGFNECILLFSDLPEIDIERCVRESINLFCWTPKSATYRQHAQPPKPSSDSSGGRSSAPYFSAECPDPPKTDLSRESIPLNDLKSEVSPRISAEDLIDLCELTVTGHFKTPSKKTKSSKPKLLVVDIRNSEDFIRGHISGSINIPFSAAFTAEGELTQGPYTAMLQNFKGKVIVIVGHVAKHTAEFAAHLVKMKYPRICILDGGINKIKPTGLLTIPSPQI
UniProt O75528: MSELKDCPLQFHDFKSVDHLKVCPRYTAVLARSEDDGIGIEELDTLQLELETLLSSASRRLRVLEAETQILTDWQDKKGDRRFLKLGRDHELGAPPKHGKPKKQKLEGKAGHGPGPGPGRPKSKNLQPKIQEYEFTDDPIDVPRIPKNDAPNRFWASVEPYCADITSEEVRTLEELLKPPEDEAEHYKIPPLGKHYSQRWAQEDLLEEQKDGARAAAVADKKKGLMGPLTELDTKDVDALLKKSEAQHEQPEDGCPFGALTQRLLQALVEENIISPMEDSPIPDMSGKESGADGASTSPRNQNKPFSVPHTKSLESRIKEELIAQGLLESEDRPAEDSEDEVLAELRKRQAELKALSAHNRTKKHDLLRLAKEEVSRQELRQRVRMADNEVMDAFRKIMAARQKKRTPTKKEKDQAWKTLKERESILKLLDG
UniProt Q0IIM8: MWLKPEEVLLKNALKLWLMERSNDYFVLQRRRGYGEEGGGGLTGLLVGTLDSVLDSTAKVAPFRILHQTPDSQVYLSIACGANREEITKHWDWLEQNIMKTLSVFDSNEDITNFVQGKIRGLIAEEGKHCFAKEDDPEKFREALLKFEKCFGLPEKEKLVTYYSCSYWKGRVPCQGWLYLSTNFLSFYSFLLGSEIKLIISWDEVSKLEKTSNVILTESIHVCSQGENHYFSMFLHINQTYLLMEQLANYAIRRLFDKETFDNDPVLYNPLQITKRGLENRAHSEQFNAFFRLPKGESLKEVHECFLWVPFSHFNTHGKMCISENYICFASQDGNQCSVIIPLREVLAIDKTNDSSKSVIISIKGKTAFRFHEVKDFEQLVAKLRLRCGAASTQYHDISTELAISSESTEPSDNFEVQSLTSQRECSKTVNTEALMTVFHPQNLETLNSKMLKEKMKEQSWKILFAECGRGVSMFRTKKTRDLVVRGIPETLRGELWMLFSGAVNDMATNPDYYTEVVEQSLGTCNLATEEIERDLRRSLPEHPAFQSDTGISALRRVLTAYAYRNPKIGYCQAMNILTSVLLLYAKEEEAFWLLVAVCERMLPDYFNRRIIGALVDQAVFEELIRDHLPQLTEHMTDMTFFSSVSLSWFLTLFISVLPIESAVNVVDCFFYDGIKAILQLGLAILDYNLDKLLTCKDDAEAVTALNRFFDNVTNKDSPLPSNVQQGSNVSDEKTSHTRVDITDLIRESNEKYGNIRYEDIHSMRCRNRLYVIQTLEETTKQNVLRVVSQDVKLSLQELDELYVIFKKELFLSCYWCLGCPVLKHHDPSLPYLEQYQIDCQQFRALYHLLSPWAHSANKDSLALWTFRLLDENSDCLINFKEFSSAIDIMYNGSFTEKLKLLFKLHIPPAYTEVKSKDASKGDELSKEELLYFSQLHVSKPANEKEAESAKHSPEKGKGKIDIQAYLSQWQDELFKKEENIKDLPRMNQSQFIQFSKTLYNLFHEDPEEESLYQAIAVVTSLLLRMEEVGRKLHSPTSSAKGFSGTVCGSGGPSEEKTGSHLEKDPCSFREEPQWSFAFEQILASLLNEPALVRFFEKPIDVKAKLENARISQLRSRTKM
UniProt Q13395: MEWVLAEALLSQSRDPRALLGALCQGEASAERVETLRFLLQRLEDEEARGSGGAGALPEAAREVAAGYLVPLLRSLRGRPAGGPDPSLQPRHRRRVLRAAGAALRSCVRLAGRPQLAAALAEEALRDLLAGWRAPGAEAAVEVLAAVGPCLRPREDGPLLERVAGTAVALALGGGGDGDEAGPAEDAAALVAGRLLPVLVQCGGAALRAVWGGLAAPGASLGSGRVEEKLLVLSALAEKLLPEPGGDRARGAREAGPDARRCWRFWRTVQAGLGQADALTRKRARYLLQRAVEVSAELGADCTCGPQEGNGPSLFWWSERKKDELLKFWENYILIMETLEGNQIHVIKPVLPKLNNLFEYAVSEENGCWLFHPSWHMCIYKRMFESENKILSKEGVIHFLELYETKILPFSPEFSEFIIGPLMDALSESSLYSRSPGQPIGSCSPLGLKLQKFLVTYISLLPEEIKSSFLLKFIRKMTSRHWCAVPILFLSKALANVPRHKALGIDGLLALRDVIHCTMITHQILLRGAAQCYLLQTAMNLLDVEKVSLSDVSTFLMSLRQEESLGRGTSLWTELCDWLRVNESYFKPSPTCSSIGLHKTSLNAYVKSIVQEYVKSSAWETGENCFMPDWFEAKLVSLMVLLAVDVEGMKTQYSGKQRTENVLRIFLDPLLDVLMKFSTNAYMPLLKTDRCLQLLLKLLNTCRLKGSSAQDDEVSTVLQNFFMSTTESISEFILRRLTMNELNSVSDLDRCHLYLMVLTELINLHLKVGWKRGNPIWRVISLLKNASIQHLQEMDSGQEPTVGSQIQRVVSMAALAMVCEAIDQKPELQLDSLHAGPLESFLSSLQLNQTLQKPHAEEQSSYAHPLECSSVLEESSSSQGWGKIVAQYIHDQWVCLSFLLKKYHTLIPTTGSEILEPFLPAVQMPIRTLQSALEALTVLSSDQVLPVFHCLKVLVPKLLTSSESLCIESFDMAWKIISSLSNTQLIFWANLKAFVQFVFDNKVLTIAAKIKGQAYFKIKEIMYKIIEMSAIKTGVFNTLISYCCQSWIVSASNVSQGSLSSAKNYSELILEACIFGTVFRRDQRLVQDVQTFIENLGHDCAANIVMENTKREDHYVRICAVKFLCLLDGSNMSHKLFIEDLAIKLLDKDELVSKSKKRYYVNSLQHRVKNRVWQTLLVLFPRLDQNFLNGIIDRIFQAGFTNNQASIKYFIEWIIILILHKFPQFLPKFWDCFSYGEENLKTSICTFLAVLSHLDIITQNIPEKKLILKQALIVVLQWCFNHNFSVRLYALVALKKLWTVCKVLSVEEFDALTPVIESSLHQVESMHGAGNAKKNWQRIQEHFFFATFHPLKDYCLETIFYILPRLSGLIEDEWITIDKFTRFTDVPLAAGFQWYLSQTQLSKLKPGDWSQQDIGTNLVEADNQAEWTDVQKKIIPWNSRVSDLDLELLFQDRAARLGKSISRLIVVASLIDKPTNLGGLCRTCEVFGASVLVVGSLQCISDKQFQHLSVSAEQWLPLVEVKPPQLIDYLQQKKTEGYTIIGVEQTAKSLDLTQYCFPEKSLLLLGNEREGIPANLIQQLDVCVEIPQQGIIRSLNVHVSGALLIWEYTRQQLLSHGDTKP
UniProt Q17R31: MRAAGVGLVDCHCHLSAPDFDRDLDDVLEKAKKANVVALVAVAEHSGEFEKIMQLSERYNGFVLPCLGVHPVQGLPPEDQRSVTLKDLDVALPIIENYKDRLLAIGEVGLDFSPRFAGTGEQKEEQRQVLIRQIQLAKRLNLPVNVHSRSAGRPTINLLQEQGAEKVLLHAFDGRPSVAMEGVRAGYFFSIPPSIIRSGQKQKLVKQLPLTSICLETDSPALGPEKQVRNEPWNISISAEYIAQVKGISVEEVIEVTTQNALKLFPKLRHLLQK
UniProt Q8TC07: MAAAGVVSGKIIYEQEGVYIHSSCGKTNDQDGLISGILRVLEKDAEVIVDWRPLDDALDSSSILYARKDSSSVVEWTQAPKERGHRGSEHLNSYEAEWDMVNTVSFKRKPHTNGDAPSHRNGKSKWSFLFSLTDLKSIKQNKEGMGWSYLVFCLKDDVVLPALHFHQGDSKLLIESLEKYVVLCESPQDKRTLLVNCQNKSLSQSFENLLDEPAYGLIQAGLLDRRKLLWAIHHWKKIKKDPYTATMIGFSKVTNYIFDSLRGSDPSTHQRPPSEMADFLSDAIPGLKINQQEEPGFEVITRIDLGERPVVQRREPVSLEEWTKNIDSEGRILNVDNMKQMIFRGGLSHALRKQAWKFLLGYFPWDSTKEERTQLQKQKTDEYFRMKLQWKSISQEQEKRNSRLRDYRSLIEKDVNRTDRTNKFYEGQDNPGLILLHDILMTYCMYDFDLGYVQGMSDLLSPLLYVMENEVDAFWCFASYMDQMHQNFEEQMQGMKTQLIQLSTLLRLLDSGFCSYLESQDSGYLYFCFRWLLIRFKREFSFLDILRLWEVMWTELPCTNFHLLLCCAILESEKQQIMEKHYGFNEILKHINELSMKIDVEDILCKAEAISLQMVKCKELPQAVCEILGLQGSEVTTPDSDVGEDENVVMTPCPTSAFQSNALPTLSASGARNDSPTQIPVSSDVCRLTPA
UniProt P26639: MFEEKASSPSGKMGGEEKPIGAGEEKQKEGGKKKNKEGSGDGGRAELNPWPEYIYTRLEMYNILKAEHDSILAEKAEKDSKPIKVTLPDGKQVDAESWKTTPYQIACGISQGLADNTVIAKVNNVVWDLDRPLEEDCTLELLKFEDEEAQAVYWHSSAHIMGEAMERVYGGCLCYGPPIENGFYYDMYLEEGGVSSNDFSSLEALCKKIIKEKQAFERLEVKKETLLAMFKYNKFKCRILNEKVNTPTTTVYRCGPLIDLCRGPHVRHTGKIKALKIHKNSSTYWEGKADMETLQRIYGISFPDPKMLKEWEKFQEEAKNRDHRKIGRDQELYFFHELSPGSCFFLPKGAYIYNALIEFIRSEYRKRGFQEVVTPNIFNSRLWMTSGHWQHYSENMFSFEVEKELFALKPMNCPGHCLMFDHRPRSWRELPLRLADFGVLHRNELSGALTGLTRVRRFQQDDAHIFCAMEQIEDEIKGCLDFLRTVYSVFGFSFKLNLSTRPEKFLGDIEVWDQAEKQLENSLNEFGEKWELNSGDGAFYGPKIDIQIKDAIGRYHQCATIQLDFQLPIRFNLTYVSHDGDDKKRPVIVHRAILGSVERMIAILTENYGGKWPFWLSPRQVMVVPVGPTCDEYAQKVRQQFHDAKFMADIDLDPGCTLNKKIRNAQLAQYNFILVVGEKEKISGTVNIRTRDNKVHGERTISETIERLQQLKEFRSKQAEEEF

Compound: CC1Cc2ccccc2N1C(=O)C1CCCN(C1)C(=O)CCl (mixture of isomers) [TRIM25 ligand 11 (diastereomer mixture)]
Assay: probe-labelled cysteine peptide fold change vs DMSO (competition) (log2 fold change); higher = less target engagement (more negative = stronger competition)
Settings: THP-1, incubation time: 4 h
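Further: competitive chemoproteomic profiling in live THP-1 cells with an iodoacetamide desthiobiotin (IA-DTB) probe, comparing probe-labelled peptide intensities in compound-treated cells against DMSO-treated controls.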

Target	probe-labelled cysteine peptide fold change (10 µM)	probe-labelled cysteine peptide fold change (50 µM)
TAF7_Q15545_72_LVDLPCVMESLK (UniProt Q15545)	-0.198	-0.107
TAF2_Q6P1X5_690_LALTDILEQEQCFYR (UniProt Q6P1X5)	-0.0292	-0.115
TAX1BP1_Q86VP1_350_EDTCFLK (UniProt Q86VP1)	0.0662	-0.034
TBL3_Q12788_728_HCHEAQAVLGVLLRR (UniProt Q12788)	-0.286	-0.143
TBC1D23_Q9NUY8_399_QSIESGSIAGGEHLCFMGSGR (UniProt Q9NUY8)	0.077	0.00346
SYNPO2_Q9UMS6_290_VEVILDCSDR (UniProt Q9UMS6)	-0.0945	-0.224
TACO1_Q9BSH4_256_KLDSLGLCSVSCALEFIPNSK (UniProt Q9BSH4)	-0.0788	-0.13
TAF6_P49848_141_AHWLSIEGCQPAIPENPPPAPK (UniProt P49848)	-0.132	-0.0655
SYNCRIP_O60506_211_GYAFVTFCTK (UniProt O60506)	-0.111	0.00391
TBCC_Q15814_284_AIVEDCSGIQFAPYTWSYPEIDK (UniProt Q15814)	0.374	0.173
TBCK_Q8TEA7_871_ICILDGGINK (UniProt Q8TEA7)	0.0276	0.0693
TADA3_O75528_255_KSEAQHEQPEDGCPFGALTQR (UniProt O75528)	-0.0288	-0.117
TBC1D4_O60343_74_SQKPEAGGCGAPAAR (UniProt O60343)	-0.0413	-0.117
TBL3_Q12788_597_NNECVR (UniProt Q12788)	0.0734	0.337
TBC1D8B_Q0IIM8_840_HHDPSLPYLEQYQIDCQQFR (UniProt Q0IIM8)	0.123	0.218
TBCB_Q99426_216_YFECQAK (UniProt Q99426)	0.0354	0.0326
SYK_P43405_89+101_THASPADLCHYHSQESDGLVCLLK (UniProt P43405)	0.0294	-0.215
SYNE1_Q8NF91_6460_NLFSQAFPENGDNRDVIEDTLGCLLGR (UniProt Q8NF91)	-0.15	-0.00366
TARBP1_Q13395_1556_SLDLTQYCFPEK (UniProt Q13395)	-0.0113	0.0163

Target	probe-labelled cysteine peptide fold change (10 µM)	probe-labelled cysteine peptide fold change (50 µM)
TARBP1_Q13395_24_ALLGALCQGEASAER (UniProt Q13395)	-0.00389	-0.12
SYNJ2_O15056_31_GRDDCLLFEAGTVATLAPEEK (UniProt O15056)	-0.0378	-0.193
TBCK_Q8TEA7_74_LVVVAEHCER (UniProt Q8TEA7)	0.0182	0.0466
TATDN3_Q17R31_13_AAGVGLVDCHCHLSAPDFDRDLDDVLEK (UniProt Q17R31)	-0.083	-0.192
TBC1D15_Q8TC07_184_YVVLCESPQDK (UniProt Q8TC07)	0.12	0.215
TADA3_O75528_255_SEAQHEQPEDGCPFGALTQR (UniProt O75528)	-0.0901	-0.151
TBC1D15_Q8TC07_605_IDVEDILCK (UniProt Q8TC07)	0.391	0.145
SYVN1_Q86TM6_307_LPCNHIFHTSCLR (UniProt Q86TM6)	0.185	-0.0224
TAMM41_Q96BW9_285_DVEETLFQVAHDPDCGDVVR (UniProt Q96BW9)	-0.131	0.0187
TARS_P26639_630_QVMVVPVGPTCDEYAQK (UniProt P26639)	-0.135	-0.0844
TARS_P26639_137_VNNVVWDLDRPLEEDCTLELLK (UniProt P26639)	0.135	-0.116
TAF5L_O75529_318_IHLACDILEEEDDEDDNAGTEMK (UniProt O75529)	0.085	-0.00589
TBCCD1_Q9NVR7_337_CNESFIYLLSPLR (UniProt Q9NVR7)	0.259	0.229
TACC1_O75410_78_ESCDPSLGLAGPGAK (UniProt O75410)	-0.165	-0.326
SYMPK_Q92797_1068_CPELREPLLAHVR (UniProt Q92797)	-0.209	-0.0724
TAPBPL_Q9BX59_122_EVTCEISR (UniProt Q9BX59)	0.00569	0.0559
TAP2_Q03519_362_EALEQCR (UniProt Q03519)	0.00775	-0.0584
TARBP1_Q13395_1481_LIVVASLIDKPTNLGGLCR (UniProt Q13395)	-0.0926	-0.0834
TBC1D14_Q9P2M4_81_HSLQSVDSGIPTLEIGNPEPVPCSAVHVR (UniProt Q9P2M4)	-0.163	-0.164

Looked up one by one from above:
Target	probe-labelled cysteine peptide fold change (10 µM)	probe-labelled cysteine peptide fold change (50 µM)
TBC1D4_O60343_74_SQKPEAGGCGAPAAR (UniProt O60343)	-0.0413	-0.117
TBC1D8B_Q0IIM8_840_HHDPSLPYLEQYQIDCQQFR (UniProt Q0IIM8)	0.123	0.218
